{"source": "patent US7504114B1", "about": "“Preparations for percutaneous absorption” (Hisamitsu Pharmaceuticals, priority 1999, dated 2009)", "origin": "cited, not measured here", "conditions": "index of lipophilicity; from Polymer Handbook or calculated by Fedors", "note": "For at least one compound, name, drawing or mass did not settle the structure."}
{"smiles": "CC=CC(=O)N(CC)c1ccccc1C", "note": "[crotamiton]", "values": [{"measurement": "solubility parameter δ", "value": "9.9 (cal/cm^3)^1/2"}]}
